# Screening data, single-dose tests

Chains of the proteins cited; added tags and fusions are not shown.
UniProt P9WPC5, whole entry: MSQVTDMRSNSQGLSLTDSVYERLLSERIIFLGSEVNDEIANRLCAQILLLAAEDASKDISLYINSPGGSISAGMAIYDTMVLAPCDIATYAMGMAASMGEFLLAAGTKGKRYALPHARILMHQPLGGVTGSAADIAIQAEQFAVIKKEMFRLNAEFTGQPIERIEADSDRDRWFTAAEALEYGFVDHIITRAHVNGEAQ
UniProt P9WPC3, whole entry partner: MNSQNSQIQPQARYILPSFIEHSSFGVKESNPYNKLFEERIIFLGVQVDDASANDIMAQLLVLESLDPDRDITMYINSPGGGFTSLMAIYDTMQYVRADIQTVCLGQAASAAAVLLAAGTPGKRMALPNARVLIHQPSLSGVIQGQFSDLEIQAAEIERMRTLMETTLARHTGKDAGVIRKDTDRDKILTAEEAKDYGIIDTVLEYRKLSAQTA

Data taken from ChEMBL document CHEMBL3988442, “University of Dundee, Small-Polar-MMV Screening Library” (2021).

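Protease assay of ClpP1P2, read by the AMC dye that it sets free. Target: ClpP1P2, Mycobacterium tuberculosis (UniProt P9WPC5 and UniProt P9WPC3). Concentration: 50 µM. Direction is inferred from only a few compounds that gave an IC50; most scored high, so higher reads as stronger inhibition. Most other retested compounds had strongly negative values. About 69,000 compounds were tested under these conditions; 0.015% (about 10) showed 50% or more at least once.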

Each number is a percent effect as filed.
The controls that fix the scale are not given in the record; negative values are as filed.
Compounds were drawn at random from those tested, without regard to their results.

With Cc1nn(-c2ccccc2)cc1C(=O)N1CCCN2CCCC2C1 (centres unmarked) the screen gave 3.075%.
With COCCCN(Cc1ccccn1)S(=O)(=O)Cc1ccccc1 the screen gave -13.91%.
With Cc1nc(C(=O)N2CCCC2c2noc(C3CC3)n2)c[nH]1 (centres unmarked) the screen gave -36.24%.
With COC(=O)NCC(=O)N1CCCC1c1nc(-c2ccccc2F)c[nH]1 (centres unmarked) the screen gave -9.442%.
With COc1cc(C)ccc1S(=O)(=O)N1CC[C@](C)(O)[C@H](C)C1 the screen gave -21.52%.
With COCC(=O)N1CC[C@@H]2O[C@@H](C)C[C@H]2C1 the screen gave 1.726%.
With CN(C)C1CCC2(CCN(Cc3cccnc3)CC2)c2ccccc21 (centres unmarked) the screen gave -2.309%.
With COC(=O)CN1CCN(c2cccc(C)c2)CC1 the screen gave -11.77%.
With CN1CCN([C@@H]2CN(C(=O)c3cc4ccc(F)cc4[nH]3)C[C@H]2O)CC1 the screen gave -16.28%.
With CCO[C@H]1C[C@@H](O)C12CCN(C1Cc3ccccc3C1)CC2 the screen gave 0.7547%.
With Cc1cc(N2CCC(CO)(CC3CCCCO3)CC2)nc2ccccc12 (centres unmarked) the screen gave -33.52%.
With CC(C)(C)OC(=O)N1CCC[C@H](NCC2=CCCOC2)C1 the screen gave 2.085%.
With CN(C)CCN1CCc2c(nnn2C)C1COCc1ccccc1 (centres unmarked) the screen gave -0.9768%.
With Cc1cccc(CN2C(=O)C[C@H]3[C@@H]2CCN3Cc2nccs2)n1 the screen gave 8.872%.
With Cc1nccnc1N1Cc2cnn(Cc3ccc(F)cc3)c2C1 the screen gave -1.729%.
With CC(=O)Nc1ccc(Oc2cc(C)nc(C3CCCNC3)c2)cc1 (centres unmarked) the screen gave -8.269%.
With O=C(NCC1CC1)C1CN(C(=O)c2cnccn2)CC12CCOCC2 (centres unmarked) the screen gave 4.39%.
With CCc1nc(CN(C)CC(=O)OC(C)(C)C)cs1 the screen gave -5.915%.
With COCCN1C(=O)c2ccc(C(=O)NCCc3c[nH]cn3)cc2C1=O the screen gave -3.395%.
With Cc1cc2c(N3CCC(N(C)Cc4nccs4)CC3)ncnc2s1 the screen gave -10.89%.
With O=S(=O)(Nc1cnn(C2CCOCC2)c1)c1ccc(F)c(F)c1 the screen gave -19.14%.
With O=C(CC1CCCC1)N1CC[C@H]2[C@H]1CCN2c1nncs1 the screen gave 3.06%.
With CCn1ncc(C(=O)N2CCN(CC3CCCO3)CC2)c1C (centres unmarked) the screen gave -3.465%.
With Cc1cc(N2CCN(Cc3ccnn3C)CC2)cc(C2CCCN2)n1 (centres unmarked) the screen gave 10.23%.
With Cc1cnn(CC2CCCCN2CCCS(=O)(=O)N(C)C)c1 (centres unmarked) the screen gave -18.62%.
With Cc1nc[nH]c1CN1CCCN(c2nc3ccccc3s2)CC1 the screen gave -15.15%.
With COc1ccc(C(C(=O)O)N(C)CCN2CCOCC2)c(C)c1 (centres unmarked) the screen gave 8.73%.
With Cc1nccn1-c1cc(CNC(=O)CCNC(=O)OC(C)(C)C)ccn1 the screen gave 5.801%.
With CS(=O)(=O)CCN1CCC(Nc2c(Cl)cccc2C#N)CC1 the screen gave -9.046%.
With Cc1cccc(NC(=O)c2cccc(OCc3nnnn3C)c2)n1 the screen gave 13.91%.
With CCC(=O)N1Cc2nnc(C3CCOCC3)n2C(Cc2c[nH]cn2)C1 (centres unmarked) the screen gave -5.636%.
With CN(CCC#N)C(=O)Cn1cnc2c(Br)cccc2c1=O the screen gave 6.383%.
With COc1cc(-c2nccn2CCn2cccn2)cc2c1OCO2 the screen gave 7.542%.
With CCCC(=O)n1ccn(S(=O)(=O)c2ccc(C)cc2)c1=O the screen gave -4.601%.
With O=C(c1ccnnc1)N1CCc2ncnc(C3CCOC3)c2CC1 (centres unmarked) the screen gave 2.334%.
With Cc1ccc(CN2C[C@H]3CN(CC4CCN(C)CC4)C(=O)[C@H]3C2)s1 the screen gave -7.79%.
With Cn1cc(C2CCCN2C(=O)c2cnc(-c3ccco3)s2)cn1 (centres unmarked) the screen gave -11.76%.
With NC(=O)Nc1cccc(CNC(=O)CCCOCc2ccccc2)c1 the screen gave -2.437%.
With Cc1noc(OCc2csc(C)n2)n1 the screen gave 7.316%.
With CN1CCNC(=O)C12CCN(C(=O)c1ccc3[nH]c(=O)[nH]c3c1)CC2 the screen gave -10.09%.
With CCC(NC(N)=O)c1ccccc1OCC(=O)N1CCCC1 (centres unmarked) the screen gave 20.75%.
With Cc1cc(C2CCCN(CC(=O)N3CCc4ccccc43)C2)n[nH]1 (centres unmarked) the screen gave -8.569%.
With Cc1cccc2nc(CN3CCCC3Cn3cncn3)cn12 (centres unmarked) the screen gave -37.31%.
With Cc1cc(NCCO)nc(N2CCCC2)c1C#N the screen gave -12.27%.
With Nc1cccc(C2CN(C(=O)CN3CCOCC3)CCO2)n1 (centres unmarked) the screen gave -20.51%.
With Cc1ccc(CN2CCCC(c3nnc(CN4CCCCC4)n3C)C2)s1 (centres unmarked) the screen gave 3.852%.
With CCc1nc(CN2CCCC(NCc3ncc(C(C)(C)C)o3)C2)no1 (centres unmarked) the screen gave 20.08%.
With Cn1ccnc1CN1CCC2(CC(=O)N(c3ccsc3)C2)C1 (centres unmarked) the screen gave -9.818%.
With Cc1ccc(-c2cc(CS(=O)(=O)NC3CCCNC3=O)on2)cc1 (centres unmarked) the screen gave -1.871%.
With CCOc1ccc(NC(=O)c2oc(CC)cc2C)cc1CO the screen gave -5.318%.
With CN(C)Cc1nc(-n2cnc(C(=O)NC3CCCC3)c2)n2ccccc12 the screen gave -0.5604%.
With COc1ccccc1N1CCN(C(=O)CSCC2CC2)C(C)C1 (centres unmarked) the screen gave -17.68%.
With Cc1nc(C)n(C2CCCN(C(=O)c3cccc4[nH]ncc34)C2)n1 (centres unmarked) the screen gave -14.54%.
With COCc1nnc(C(=O)N(C)Cc2cnc3ccccn23)o1 the screen gave -5.889%.
With O=C(CS(=O)(=O)Cc1csc(-c2ccc(F)cc2)n1)NCC1CC1 the screen gave 0.4322%.
With c1cncc(CO[C@H]2CC[C@H]3[C@@H]2OCCN3C2CCOCC2)c1 the screen gave -5.374%.
With Cc1cc(N2CCOCC2)ccc1NC(C)c1nc(C(C)C)no1 (centres unmarked) the screen gave 13.59%.

Once more, the final 4:

SMILES	Percent Effect
COCc1nnc(C(=O)N(C)Cc2cnc3ccccn23)o1	-5.889
O=C(CS(=O)(=O)Cc1csc(-c2ccc(F)cc2)n1)NCC1CC1	0.4322
c1cncc(CO[C@H]2CC[C@H]3[C@@H]2OCCN3C2CCOCC2)c1	-5.374
Cc1cc(N2CCOCC2)ccc1NC(C)c1nc(C(C)C)no1 (centres unmarked)	13.59